Assay results reported in PubChem BioAssay AID2685 (National Center for Advancing Translational Sciences (NCATS), 2010).
About 2,100 (0.66%) of roughly 320,000 compounds were called active. The shares of active, inactive and inconclusive entries below differ from those in the screen. The call rests on the fitted dose curve; in most records, active means well fitted inhibition curve with a large enough effect in the signal ratio, with a control signal flat (not every such curve was filed as active); inconclusive means small, poorly fitted or top-dose-only effect, or effect the other way, or a change in a side signal; inactive means flat fitted curve, though single readings scatter; the % refers to the signal ratio. Potencies of inconclusive entries are doubtful fits and often do not repeat.

Test: qHTS Assay for Lipid Storage Modulators in Drosophila S3 Cells
Conditions: BODIPY lipid droplet fluorescence, 18-24 h, cells fed with added oleic acid; lipid storage change, negative = inhibition: at 46.1 µM (top of the series) unless noted
Method in brief: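 Drosophila S3 cells got compounds at several concentrations plus oleic acid (400 uM solution). Laser-scanning cytometry with 488 nm excitation read lipid droplets at 500-530 nm and cells at 575-640 nm. Percent activity was relative to 20 uM Triacsin C.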
On the % scale 0 is the no-effect control and ±100 the full control effect; potency means the concentration at half of the fitted maximal effect.

| Structure (SMILES) | lipid storage change, negative = inhibition | Potency |
| --- | --- | --- |
| O=C(COC(=O)Cc1c(Cl)cccc1Cl)Nc1ccc2[nH]c(=O)[nH]c2c1 | inconclusive | – |
| COc1ccc2c(CCNC(=O)/C=C/c3ccc(OC)c(OC)c3)c[nH]c2c1 | inconclusive: -42.4% | – |
| Cc1nn(C2CCS(=O)(=O)C2)c(Cl)c1/C=C/C(=O)OCC(=O)Nc1ccc2c(c1)OCO2 (stereo unspecified) | inconclusive: 9.13% | – |
| O=C(c1cccc(S(=O)(=O)N2CCCCCC2)c1)N1CCN(c2ccccc2F)CC1 | – | inconclusive: 29.1 µM [falling, single point] |
| COC(=O)CC1Oc2ccccc2N(Cc2ccc(C)cc2)C1=O (stereo unspecified) | – | inconclusive: 3.66 µM [falling, partial curve, poor fit] |
| COc1ccc(S(=O)(=O)Nc2ccc3c(c2)N(C(C)=O)CCC3)cc1OC | inconclusive: -27% | – |
| Brc1ccccc1CN1CCC(N2CCCCC2)CC1 | inactive | – |
| CC(c1ccccc1)N1CC(C(=O)Nc2ccc(F)cc2)CC1=O (stereo unspecified) | – | inconclusive: 0.82 µM [rising, single point] |
| CSc1nnc(Cc2cc(=O)[nH]c(=O)[nH]2)n1-c1cc(C)ccc1C | inconclusive: -10.3% | – |
| O=C(Nc1c(F)cc(F)cc1Br)c1cc(S(=O)(=O)N2CCN(c3ccccn3)CC2)ccc1F | inconclusive: 10.9% | – |
| CC(=O)Nc1ccc(S(=O)(=O)Nc2ccc(F)c([N+](=O)[O-])c2)cc1 | inconclusive: 22.5% | – |
| Cc1cc(OCC(=O)Nc2cnn(CCCC(=O)O)c2)ccc1Cl | – | inconclusive: 29.1 µM [falling, single point] |
| CCOC(=O)c1ccc(S(=O)(=O)NC2CCCCCCC2)n1C | – | inconclusive: 2.06 µM [rising, partial curve] |
| CN1C(=O)CSc2ccc(NC(=O)N3CCc4ccccc43)cc21 | inconclusive: 0.764% | – |
| COc1ccc(C(=O)Nc2ccc(OCc3ccccc3)cc2)cc1[N+](=O)[O-] | inconclusive: 6.66% | – |
| c1csc(-c2nnc(N3CCCCCC3)c3ccccc23)c1 | inconclusive: 9.45% | – |
| COc1ccc(C(c2sc3nc(C)nn3c2O)N2CCC(C(N)=O)CC2)cc1OC (stereo unspecified) | inconclusive: 1.47% | – |
| CN(CCO)c1nc(N)c2c(N)nc3c(c2c1C#N)CC(=O)N3Cc1cccs1 | inconclusive: -0.626% | – |
| Cc1nc([N+](=O)[O-])cn1CC(=O)Nc1ccc(F)c(Cl)c1 | inconclusive: -8.12% | – |
| NC(=O)NC(=O)COC(=O)CCCCCNS(=O)(=O)c1ccc2c(c1)OCCO2 | inconclusive: 31% | – |
| COc1ccc(N2CCN(C(=O)CCS(=O)(=O)c3ccc4c(c3)NC(=O)CO4)CC2)cc1 | inconclusive: 16.5% | – |

Random excerpt: 2 records from the list.

| Structure (SMILES) | lipid storage change, negative = inhibition | Potency |
| --- | --- | --- |
| COc1ccc(N2CCN(C(=O)CCS(=O)(=O)c3ccc4c(c3)NC(=O)CO4)CC2)cc1 | inconclusive: 16.5% | – |
| Cc1nc([N+](=O)[O-])cn1CC(=O)Nc1ccc(F)c(Cl)c1 | inconclusive: -8.12% | – |
